In paper PMC11886768 (2025):
These are yes or no findings as the source states them, for the method shown. For some assays here: Binding seen in cells or lysates may run through a third protein. Some entries that bind do so weakly or less than the wild type. For some assays here: Tags and fused reporters may be left off the sequences shown. Each block holds one molecule with its values, some of them ahead of it.

Amino acid sequences for entries named in this document (tags omitted).
UniProt Q43125: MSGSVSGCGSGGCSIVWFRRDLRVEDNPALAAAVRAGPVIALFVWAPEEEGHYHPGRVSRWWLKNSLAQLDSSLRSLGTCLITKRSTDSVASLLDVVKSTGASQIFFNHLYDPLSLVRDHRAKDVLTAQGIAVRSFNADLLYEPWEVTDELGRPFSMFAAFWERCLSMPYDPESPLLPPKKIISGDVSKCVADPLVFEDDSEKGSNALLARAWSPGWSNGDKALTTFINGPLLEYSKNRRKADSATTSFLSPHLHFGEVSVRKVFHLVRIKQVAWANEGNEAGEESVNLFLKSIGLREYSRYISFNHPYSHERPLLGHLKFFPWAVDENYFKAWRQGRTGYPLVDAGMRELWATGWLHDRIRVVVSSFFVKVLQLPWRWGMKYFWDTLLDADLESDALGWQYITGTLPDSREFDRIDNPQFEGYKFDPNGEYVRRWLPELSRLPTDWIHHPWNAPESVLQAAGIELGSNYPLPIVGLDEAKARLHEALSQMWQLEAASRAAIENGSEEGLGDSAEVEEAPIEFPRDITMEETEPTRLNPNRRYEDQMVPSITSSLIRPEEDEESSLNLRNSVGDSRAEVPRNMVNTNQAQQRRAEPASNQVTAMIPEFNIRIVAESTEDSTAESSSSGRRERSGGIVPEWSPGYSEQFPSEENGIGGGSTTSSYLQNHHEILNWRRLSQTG

Tests used:
BD-COP1 (Arabidopsis) = molecular target: T1, BD-COP1 (Arabidopsis) (UniProt P43254); assay: two-hybrid; Gal4-based yeast three-hybrid, third protein co-expressed as 'bridge protein'; beta-galactosidase activity; yeast 2 days in darkness, or 1 day in darkness and 1 day in 50 umol m^-2 s^-1 blue light
T1 sequence: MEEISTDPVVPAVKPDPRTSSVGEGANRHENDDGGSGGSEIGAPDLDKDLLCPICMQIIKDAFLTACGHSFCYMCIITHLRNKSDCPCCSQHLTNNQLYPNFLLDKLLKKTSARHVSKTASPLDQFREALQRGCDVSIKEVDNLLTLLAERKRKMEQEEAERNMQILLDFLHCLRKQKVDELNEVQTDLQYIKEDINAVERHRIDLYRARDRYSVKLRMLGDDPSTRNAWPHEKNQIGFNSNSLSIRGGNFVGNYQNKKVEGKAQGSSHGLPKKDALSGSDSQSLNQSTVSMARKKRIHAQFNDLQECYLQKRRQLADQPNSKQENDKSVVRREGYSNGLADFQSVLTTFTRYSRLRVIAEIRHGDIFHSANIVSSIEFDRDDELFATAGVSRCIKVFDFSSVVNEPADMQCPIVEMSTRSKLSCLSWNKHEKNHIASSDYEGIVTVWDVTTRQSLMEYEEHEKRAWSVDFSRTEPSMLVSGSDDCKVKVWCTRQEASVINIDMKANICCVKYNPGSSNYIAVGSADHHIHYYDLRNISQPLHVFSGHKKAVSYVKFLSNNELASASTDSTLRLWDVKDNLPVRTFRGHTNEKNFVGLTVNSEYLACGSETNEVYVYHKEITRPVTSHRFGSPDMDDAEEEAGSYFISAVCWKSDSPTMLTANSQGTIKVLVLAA

cLUC-COP1 (Arabidopsis) [1] = molecular target: T2, cLUC-COP1 (Arabidopsis) (UniProt P43254); assay: split reporter; luciferase complementation imaging (LCI); nLUC and cLUC fusion proteins expressed in transfected N. benthamiana leaves; luminescence imaged with a CCD camera and quantified, also on leaf discs in a plate reader (GFP-NLS-GUS as transfection control)
T2 sequence: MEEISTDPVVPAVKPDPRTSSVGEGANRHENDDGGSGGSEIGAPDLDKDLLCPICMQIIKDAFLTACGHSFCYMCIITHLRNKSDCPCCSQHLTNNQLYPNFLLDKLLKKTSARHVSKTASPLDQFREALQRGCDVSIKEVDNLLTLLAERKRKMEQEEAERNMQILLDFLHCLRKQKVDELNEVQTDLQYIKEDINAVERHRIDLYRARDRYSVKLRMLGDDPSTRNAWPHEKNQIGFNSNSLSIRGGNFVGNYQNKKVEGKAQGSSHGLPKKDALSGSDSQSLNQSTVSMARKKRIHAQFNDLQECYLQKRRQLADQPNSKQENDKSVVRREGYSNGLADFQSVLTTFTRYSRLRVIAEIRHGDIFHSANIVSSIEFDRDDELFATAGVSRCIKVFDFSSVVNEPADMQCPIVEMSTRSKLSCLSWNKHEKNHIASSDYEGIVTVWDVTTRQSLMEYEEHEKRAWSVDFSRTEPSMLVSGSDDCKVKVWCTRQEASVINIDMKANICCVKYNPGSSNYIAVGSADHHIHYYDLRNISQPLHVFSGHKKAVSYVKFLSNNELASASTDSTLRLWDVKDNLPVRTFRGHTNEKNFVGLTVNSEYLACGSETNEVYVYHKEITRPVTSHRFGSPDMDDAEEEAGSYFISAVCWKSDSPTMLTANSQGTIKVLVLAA

YFP-COP1 (Arabidopsis) = molecular target: T3, YFP-COP1 (Arabidopsis) (UniProt P43254); assay: FRET or BRET; FRET-FLIM; lifetime of the donor YFP-COP1 in the whole nucleus of leek epidermal cells after particle bombardment; acceptor mCherry-PAP2; CFP or CFP-CRY1 co-expressed as third protein
T3 sequence: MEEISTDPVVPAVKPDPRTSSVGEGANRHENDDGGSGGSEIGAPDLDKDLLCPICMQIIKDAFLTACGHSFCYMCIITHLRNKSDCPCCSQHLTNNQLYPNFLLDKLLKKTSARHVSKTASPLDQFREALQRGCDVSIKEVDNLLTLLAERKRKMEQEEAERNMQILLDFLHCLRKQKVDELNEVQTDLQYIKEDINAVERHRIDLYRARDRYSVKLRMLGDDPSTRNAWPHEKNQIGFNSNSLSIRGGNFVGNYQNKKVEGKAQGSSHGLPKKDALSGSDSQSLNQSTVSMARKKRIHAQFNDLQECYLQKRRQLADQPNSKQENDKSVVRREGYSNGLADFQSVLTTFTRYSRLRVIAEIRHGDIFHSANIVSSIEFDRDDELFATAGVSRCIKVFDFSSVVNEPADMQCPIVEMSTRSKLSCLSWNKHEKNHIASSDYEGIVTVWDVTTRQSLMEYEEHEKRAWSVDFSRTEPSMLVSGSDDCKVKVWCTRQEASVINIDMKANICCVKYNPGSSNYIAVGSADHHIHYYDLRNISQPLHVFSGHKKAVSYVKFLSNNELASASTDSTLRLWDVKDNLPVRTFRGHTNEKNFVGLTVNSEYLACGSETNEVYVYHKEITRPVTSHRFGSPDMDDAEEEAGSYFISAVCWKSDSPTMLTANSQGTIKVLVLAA

E-COP1 (Arabidopsis) = molecular target: T4, E-COP1 (Arabidopsis) (UniProt P43254); assay: two-hybrid; mammalian two-hybrid (M2H) in CHO-K1 cells; bait fused to the erythromycin repressor protein (E), prey to VP16; SEAP reporter normalised to secreted NanoLuciferase; cells illuminated with blue light
T4 sequence: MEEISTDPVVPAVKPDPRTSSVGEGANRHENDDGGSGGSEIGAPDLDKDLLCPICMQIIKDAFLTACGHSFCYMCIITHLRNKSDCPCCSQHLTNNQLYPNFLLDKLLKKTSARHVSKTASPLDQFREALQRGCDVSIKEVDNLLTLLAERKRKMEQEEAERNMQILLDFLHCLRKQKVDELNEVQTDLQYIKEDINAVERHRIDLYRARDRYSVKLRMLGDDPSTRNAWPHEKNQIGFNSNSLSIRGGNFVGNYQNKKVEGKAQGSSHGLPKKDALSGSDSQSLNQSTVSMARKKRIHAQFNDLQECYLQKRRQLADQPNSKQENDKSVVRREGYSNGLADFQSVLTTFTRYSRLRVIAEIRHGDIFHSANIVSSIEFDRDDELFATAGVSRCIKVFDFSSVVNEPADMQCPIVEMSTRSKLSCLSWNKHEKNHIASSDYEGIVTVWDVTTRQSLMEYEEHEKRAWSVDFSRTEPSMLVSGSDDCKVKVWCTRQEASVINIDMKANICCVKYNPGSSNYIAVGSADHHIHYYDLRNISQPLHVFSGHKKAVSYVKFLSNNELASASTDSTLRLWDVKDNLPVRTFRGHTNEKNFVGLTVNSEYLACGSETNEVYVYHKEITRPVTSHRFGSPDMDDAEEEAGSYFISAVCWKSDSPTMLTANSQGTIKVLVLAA

[2] = molecular target: T5, COP1 (LexA-based yeast two-hybrid fusion) (Arabidopsis) (UniProt P43254); assay: two-hybrid; LexA-based yeast two-hybrid; yeast 24 h in darkness, then 24 h in 50 umol m^-2 s^-1 blue light or darkness; 'apparent strength'
T5 sequence: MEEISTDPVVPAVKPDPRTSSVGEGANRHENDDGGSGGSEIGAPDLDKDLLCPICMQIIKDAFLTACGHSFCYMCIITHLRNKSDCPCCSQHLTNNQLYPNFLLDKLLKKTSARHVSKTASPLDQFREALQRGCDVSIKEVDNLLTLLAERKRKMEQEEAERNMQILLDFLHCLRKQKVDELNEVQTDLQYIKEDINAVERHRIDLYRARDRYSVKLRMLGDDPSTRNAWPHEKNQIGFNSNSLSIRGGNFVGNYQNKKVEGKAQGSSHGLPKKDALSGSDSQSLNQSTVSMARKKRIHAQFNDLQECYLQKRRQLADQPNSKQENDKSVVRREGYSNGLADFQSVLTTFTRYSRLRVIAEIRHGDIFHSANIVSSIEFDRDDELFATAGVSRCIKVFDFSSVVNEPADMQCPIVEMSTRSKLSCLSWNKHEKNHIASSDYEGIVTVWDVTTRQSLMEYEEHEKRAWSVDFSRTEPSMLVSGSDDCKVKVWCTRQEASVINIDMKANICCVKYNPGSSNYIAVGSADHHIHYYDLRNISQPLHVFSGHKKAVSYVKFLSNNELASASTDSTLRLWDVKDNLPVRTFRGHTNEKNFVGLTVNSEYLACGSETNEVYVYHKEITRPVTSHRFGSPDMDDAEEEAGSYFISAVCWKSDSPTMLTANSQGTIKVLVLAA

cLUC-COP1 (Arabidopsis) [3] = molecular target: T2, cLUC-COP1 (Arabidopsis); assay: split reporter; LCI competition: cLUC-COP1 and an nLUC-fused substrate co-expressed with a GFP-tagged third protein or GFP-NLS-GUS (negative control) in transfected N. benthamiana leaves; TagRFP as transfection control

binding (BD-COP1 (Arabidopsis)): binds
Molecule: CRY1 (yeast three-hybrid 'bridge protein') (from UniProt Q43125 1-681)

binding (cLUC-COP1 (Arabidopsis) [1]): binds
Molecule: CRY1 fused to the N-terminal half of luciferase (nLUC) (from UniProt Q43125 1-681)

binding (YFP-COP1 (Arabidopsis)): binds
Molecule: CFP-CRY1 (from UniProt Q43125 1-681)

binding (E-COP1 (Arabidopsis)): binds
Molecule: CRY1-VP16 (from UniProt Q43125 1-681)

binding [2]: binds
Molecule: CRY1 (LexA-based yeast two-hybrid fusion) (from UniProt Q43125 1-681)

binding (BD-COP1 (Arabidopsis)): binds
B1: AD-PAP2 (protein, UniProt Q9ZTC3 1-249)
chain: MEGSSKGLRKGAWTAEEDSLLRLCIDKYGEGKWHQVPLRAGLNRCRKSCRLRWLNYLKPSIKRGRLSNDEVDLLLRLHKLLGNRWSLIAGRLPGRTANDVKNYWNTHLSKKHESSCCKSKMKKKNIISPPTTPVQKIGVFKPRPRSFSVNNGCSHLNGLPEVDLIPSCLGLKKNNVCENSITCNKDDEKDDFVNNLMNGDNMWLENLLGENQEADAIVPEATTAEHGATLAFDVEQLWSLFDGETVELD

binding (YFP-COP1 (Arabidopsis)): binds
B2: mCherry-PAP2 (protein, UniProt Q9ZTC3 1-249)
chain: MEGSSKGLRKGAWTAEEDSLLRLCIDKYGEGKWHQVPLRAGLNRCRKSCRLRWLNYLKPSIKRGRLSNDEVDLLLRLHKLLGNRWSLIAGRLPGRTANDVKNYWNTHLSKKHESSCCKSKMKKKNIISPPTTPVQKIGVFKPRPRSFSVNNGCSHLNGLPEVDLIPSCLGLKKNNVCENSITCNKDDEKDDFVNNLMNGDNMWLENLLGENQEADAIVPEATTAEHGATLAFDVEQLWSLFDGETVELD

binding (cLUC-COP1 (Arabidopsis) [3]): binds
B3: PAP2-nLUC (protein, UniProt Q9ZTC3 1-249)
chain: MEGSSKGLRKGAWTAEEDSLLRLCIDKYGEGKWHQVPLRAGLNRCRKSCRLRWLNYLKPSIKRGRLSNDEVDLLLRLHKLLGNRWSLIAGRLPGRTANDVKNYWNTHLSKKHESSCCKSKMKKKNIISPPTTPVQKIGVFKPRPRSFSVNNGCSHLNGLPEVDLIPSCLGLKKNNVCENSITCNKDDEKDDFVNNLMNGDNMWLENLLGENQEADAIVPEATTAEHGATLAFDVEQLWSLFDGETVELD
